The source of these data is PMC5109591.

The chains behind the UniProt entries cited, without tags or fusion partners.
UniProt P29350: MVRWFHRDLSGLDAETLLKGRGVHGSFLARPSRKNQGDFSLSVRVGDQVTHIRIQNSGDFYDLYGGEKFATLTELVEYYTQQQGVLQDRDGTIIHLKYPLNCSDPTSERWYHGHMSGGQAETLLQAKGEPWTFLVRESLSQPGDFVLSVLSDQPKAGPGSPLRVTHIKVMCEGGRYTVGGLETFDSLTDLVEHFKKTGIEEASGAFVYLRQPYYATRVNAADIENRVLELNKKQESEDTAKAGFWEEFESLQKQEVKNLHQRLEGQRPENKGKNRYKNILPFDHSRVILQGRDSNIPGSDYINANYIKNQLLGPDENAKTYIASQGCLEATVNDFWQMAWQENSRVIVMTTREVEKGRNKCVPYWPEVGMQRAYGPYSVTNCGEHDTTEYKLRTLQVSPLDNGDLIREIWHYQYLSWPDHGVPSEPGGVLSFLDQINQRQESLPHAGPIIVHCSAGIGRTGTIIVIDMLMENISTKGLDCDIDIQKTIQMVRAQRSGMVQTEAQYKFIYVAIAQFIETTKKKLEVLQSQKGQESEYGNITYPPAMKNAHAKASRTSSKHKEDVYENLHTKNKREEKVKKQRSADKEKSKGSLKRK

These are yes or no findings as the source states them, for the method shown. Binding seen in cells or lysates may run through a third protein. Some binding calls cover weakened binding; strength is not graded here. For some assays here: Sequences can lack the tags named with a protein.

Experiment [1] addresses c-Jun N-terminal kinase 2 (JNK2) (human (endogenous in NHEKs)) (UniProt P45984). Briefly: co-IP; endogenous proteins; whole-cell extracts of NHEKs stimulated with 5 μg ml^-1 poly(I:C) and/or 30 nM REG3A; immunoprecipitation with anti-SHP-1 or anti-JNK2, protein A&G beads, immunoblot. (Immunoblotting shows a protein as a band on a membrane.)
Experiment [2] has as its target Src homology region 2 domain-containing protein tyrosine phosphatase 1 (SHP-1) (human (endogenous in NHEKs)) (UniProt P29350). Described as above.
Experiment [3] deals with T1, N-EXTL3 (1-548), Flag-tagged (UniProt O43909).
T1 sequence: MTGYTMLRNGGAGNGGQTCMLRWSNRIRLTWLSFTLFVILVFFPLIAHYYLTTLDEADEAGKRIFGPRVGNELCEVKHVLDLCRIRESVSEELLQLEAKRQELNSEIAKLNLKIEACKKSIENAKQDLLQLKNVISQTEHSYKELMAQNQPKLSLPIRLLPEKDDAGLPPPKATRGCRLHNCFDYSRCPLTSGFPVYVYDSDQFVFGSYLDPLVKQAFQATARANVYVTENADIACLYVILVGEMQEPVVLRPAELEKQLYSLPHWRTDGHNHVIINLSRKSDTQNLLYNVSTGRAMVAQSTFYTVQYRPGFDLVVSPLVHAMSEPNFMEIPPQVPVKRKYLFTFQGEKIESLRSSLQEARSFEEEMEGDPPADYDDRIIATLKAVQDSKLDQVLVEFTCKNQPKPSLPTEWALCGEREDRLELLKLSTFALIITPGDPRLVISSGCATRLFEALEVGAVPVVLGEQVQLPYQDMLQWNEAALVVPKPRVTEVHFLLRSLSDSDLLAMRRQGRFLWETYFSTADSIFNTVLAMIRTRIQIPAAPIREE
Put plainly: co-IP; whole-cell extracts after transfection; Flag-tagged EXTL3 constructs and REG3A or C-REG3A; immunoprecipitation with anti-Flag or anti-REG3A overnight at 4 degree, protein A&G beads, immunoblot.

Experiment [4] deals with T2, exostosin-like 3 (EXTL3), full-length, Flag-tagged (UniProt O43909).
T2 sequence: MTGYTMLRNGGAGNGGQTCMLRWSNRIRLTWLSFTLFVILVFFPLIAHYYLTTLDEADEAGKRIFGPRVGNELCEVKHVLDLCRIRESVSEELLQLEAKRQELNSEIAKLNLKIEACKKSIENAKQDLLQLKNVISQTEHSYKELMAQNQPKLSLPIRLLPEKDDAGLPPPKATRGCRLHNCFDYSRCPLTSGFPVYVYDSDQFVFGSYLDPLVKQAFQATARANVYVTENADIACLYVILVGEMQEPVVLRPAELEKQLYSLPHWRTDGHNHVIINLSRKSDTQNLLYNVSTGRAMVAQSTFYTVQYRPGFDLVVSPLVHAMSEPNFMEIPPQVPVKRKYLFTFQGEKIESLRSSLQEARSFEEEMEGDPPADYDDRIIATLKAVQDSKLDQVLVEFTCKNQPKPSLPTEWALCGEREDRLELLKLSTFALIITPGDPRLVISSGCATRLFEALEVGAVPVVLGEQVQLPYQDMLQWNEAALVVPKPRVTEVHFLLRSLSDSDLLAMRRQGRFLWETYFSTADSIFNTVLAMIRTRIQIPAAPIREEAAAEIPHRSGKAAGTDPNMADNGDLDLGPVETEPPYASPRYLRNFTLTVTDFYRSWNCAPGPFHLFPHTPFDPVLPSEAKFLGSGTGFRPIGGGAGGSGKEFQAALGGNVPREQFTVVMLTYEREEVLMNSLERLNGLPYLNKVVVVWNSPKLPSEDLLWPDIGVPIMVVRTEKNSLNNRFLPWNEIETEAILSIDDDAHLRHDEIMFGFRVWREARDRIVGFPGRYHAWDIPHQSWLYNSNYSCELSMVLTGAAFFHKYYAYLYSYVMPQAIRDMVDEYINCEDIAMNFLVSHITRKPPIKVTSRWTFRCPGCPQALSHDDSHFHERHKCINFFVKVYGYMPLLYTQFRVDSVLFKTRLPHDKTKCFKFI
Described as above.

Turning to “Src homology region 2 domain-containing protein tyrosine phosphatase 1 (SHP-1) (from UniProt P29350 1-595) (enzyme)”, the binding entry in experiment [1] is recorded as “binds”.
For “c-Jun N-terminal kinase 2 (JNK2) (from UniProt P45984 1-424) (enzyme)”, the binding result in experiment [2] is reported as “binds”.

B1: CTLD domain of REG3A (C-REG3A) (domain or fragment, UniProt Q06141 40-175)
chain: CPKGSKAYGSHCYALFLSPKSWTDADLACQKRPSGNLVSVLSGAEGSFVSSLVKSIGNSYSYVWIGLHDPTQGTEPNGEGWEWSSSDVMNYFAWERNPSTISSPGHCASLSRSTAFLRWKDYNCNVRLPYVCKFTD
On to B1, for which the binding result in experiment [3] was “binds”.

B2: regenerating islet-derived protein 3A (REG3A), full-length (protein, UniProt Q06141 27-175)
chain: EEPQRELPSARIRCPKGSKAYGSHCYALFLSPKSWTDADLACQKRPSGNLVSVLSGAEGSFVSSLVKSIGNSYSYVWIGLHDPTQGTEPNGEGWEWSSSDVMNYFAWERNPSTISSPGHCASLSRSTAFLRWKDYNCNVRLPYVCKFTD
For the molecule B2, the binding result in experiment [3] and in experiment [4] was “binds” each time.
